Record: PubChem BioAssay AID1053208 (Peter MacCallum Cancer Centre, 2014)

Test: 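Synthetic lethal interactions between gene loss and doxorubicin in osteosarcoma cells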 (primary screen)
Cell system: mouse osteosarcoma cells, early-passage culture from an engineered mouse model of fibroblastic bone tumour
Reagents: siRNA pool against mouse genes, 40 nM
Time to read-out: about 120 h (48 h before drug, then 72 h with drug)
Treatment: doxorubicin 100 nM for 72 h, roughly 30-40% inhibitory dose
Detection: 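Viability read as ATP luminescence after 72 h of 100 nM doxorubicin or none, duplicate wells averaged, scaled to non-targeting siRNA, then expressed as robust z-scores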
Direction: viability z-score with doxorubicin: higher = more viable cells under doxorubicin; viability z-score without drug: higher = more viable cells with knock-down alone
Active means: 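a pool counts as active when its viability z-score with doxorubicin is -2 or below and its z-score without drug lies between -2 and 2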
The whole screen tested about 17,000 reagents; this is an unselected part. 788 of all reagents (4.7%) count as active. 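Calls rest on z-score classes alone; an extra cut-off of viability at most 70% of control was not applied to them.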 Unmarked entries are inactive. Not all columns of the deposit are shown.

{"gene":"Opa3 (GeneID 403187)","combined z-score class":"no change with or without drug","viability z-score with doxorubicin":-0.79,"viability z-score without drug":-1.18}
{"gene":"Baz1a (GeneID 217578)","combined z-score class":"no change with or without drug","viability z-score with doxorubicin":0.56,"viability z-score without drug":0.17}
{"gene":"Med24 (GeneID 23989)","combined z-score class":"no change with or without drug","viability z-score with doxorubicin":0,"viability z-score without drug":0.84}
{"gene":"Alx4 (GeneID 11695)","combined z-score class":"no change with or without drug","viability z-score with doxorubicin":1.12,"viability z-score without drug":-1.18}
{"gene":"Cachd1 (GeneID 320508)","combined z-score class":"no change with or without drug","viability z-score with doxorubicin":0.67,"viability z-score without drug":1.18}
{"gene":"Myo5b (GeneID 17919)","combined z-score class":"no change with or without drug","viability z-score with doxorubicin":0,"viability z-score without drug":-1.18}

An excerpt taken from the entries so far, for reference:
{"gene":"Opa3 (GeneID 403187)","combined z-score class":"no change with or without drug","viability z-score with doxorubicin":-0.79,"viability z-score without drug":-1.18}
{"gene":"Baz1a (GeneID 217578)","combined z-score class":"no change with or without drug","viability z-score with doxorubicin":0.56,"viability z-score without drug":0.17}

The results go on.
{"gene":"Slc66a2 (GeneID 66943)","combined z-score class":"low cell count with doxorubicin only (active)","viability z-score with doxorubicin":-2.02,"viability z-score without drug":-0.34}
{"gene":"Fbxw8 (GeneID 231672)","combined z-score class":"no change with or without drug","viability z-score with doxorubicin":0.22,"viability z-score without drug":0.84}
{"gene":"Prune1 (GeneID 229589)","combined z-score class":"no change with or without drug","viability z-score with doxorubicin":0.67,"viability z-score without drug":-0.51}
{"gene":"Pi4kb (GeneID 107650)","combined z-score class":"no change with or without drug","viability z-score with doxorubicin":-1.12,"viability z-score without drug":-1.18}
{"gene":"Msx2 (GeneID 17702)","combined z-score class":"no change with or without drug","viability z-score with doxorubicin":0,"viability z-score without drug":-0.17}
{"gene":"Kcnd1 (GeneID 16506)","combined z-score class":"high cell count without drug only","viability z-score with doxorubicin":0.79,"viability z-score without drug":2.7}
